# Measured values from paper doi:10.1101/2023.07.20.548338.
# Protein sequences, listed by entry. Tags and fused reporters are not part of them. Lines headed by an entry give the natural chain unless they say otherwise; changes in a name come on top. Chains listed by the source or under a name are the forms on record and can include a tag or linker. Residues count along the entry.
# UniProt D3Z7P3, residues 55-674: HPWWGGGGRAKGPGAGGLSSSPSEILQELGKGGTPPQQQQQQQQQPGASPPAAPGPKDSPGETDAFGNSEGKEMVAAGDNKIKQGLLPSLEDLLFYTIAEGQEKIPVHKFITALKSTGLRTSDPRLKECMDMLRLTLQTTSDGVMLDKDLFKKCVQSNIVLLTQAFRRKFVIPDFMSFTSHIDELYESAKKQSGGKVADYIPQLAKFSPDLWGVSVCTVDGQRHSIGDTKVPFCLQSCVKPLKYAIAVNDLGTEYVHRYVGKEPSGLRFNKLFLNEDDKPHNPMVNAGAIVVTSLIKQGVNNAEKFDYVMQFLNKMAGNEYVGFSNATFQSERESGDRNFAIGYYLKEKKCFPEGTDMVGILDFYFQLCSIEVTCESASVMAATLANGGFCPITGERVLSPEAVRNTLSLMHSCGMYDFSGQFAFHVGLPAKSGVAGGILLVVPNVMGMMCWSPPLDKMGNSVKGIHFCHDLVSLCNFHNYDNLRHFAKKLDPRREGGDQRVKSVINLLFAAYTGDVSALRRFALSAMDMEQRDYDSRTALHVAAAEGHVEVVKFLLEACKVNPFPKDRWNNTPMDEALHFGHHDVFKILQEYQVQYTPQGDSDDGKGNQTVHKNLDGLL
# Myc-tagged KGA, HEK293T (O94925, residues 55-669): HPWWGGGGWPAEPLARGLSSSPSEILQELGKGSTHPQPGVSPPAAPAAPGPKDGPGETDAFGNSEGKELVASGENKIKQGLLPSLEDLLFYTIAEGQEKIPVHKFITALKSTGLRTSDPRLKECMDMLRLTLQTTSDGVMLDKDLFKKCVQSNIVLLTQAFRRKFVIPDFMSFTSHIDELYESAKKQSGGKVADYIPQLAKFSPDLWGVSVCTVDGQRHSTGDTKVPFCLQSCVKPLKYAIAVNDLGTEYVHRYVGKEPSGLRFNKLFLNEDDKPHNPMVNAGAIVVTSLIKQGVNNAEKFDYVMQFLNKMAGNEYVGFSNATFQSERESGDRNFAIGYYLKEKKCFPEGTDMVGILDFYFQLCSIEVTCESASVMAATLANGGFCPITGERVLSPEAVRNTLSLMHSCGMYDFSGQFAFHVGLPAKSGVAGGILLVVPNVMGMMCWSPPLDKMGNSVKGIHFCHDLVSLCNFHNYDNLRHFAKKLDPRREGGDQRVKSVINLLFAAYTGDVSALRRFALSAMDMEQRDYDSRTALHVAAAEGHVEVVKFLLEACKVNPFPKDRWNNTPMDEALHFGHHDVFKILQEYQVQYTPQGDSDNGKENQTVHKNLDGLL
# Myc-tagged GAC, HEK293T (O94925-3, form named): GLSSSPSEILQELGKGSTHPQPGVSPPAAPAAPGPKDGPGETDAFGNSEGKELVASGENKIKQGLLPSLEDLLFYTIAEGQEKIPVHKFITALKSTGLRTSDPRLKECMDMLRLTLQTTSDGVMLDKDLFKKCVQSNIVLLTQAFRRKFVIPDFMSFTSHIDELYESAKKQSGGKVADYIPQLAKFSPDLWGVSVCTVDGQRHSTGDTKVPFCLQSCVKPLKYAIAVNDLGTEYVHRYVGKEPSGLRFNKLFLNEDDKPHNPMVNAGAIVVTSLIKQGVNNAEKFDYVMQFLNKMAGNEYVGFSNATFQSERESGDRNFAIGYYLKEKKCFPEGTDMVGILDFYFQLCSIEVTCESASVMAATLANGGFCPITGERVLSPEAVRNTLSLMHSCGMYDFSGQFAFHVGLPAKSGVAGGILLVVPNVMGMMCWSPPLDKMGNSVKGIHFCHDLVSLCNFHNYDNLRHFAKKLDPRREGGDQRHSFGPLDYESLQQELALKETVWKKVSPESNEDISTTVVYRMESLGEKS
# These are yes or no findings as the source states them, for the method shown. In cells and extracts the contact can be indirect. Some results given as binding are weak or reduced against the parent protein; the word gives no strength. Sequences can lack the tags named with a protein.
# What was measured:
# [1] = biological target: T1, FLAG-tagged PDZD8-FL, stably expressed in MEFs (not stated (T527 is the human residue number)) (UniProt Q8NEN9); assay: co-IP
# T1 sequence: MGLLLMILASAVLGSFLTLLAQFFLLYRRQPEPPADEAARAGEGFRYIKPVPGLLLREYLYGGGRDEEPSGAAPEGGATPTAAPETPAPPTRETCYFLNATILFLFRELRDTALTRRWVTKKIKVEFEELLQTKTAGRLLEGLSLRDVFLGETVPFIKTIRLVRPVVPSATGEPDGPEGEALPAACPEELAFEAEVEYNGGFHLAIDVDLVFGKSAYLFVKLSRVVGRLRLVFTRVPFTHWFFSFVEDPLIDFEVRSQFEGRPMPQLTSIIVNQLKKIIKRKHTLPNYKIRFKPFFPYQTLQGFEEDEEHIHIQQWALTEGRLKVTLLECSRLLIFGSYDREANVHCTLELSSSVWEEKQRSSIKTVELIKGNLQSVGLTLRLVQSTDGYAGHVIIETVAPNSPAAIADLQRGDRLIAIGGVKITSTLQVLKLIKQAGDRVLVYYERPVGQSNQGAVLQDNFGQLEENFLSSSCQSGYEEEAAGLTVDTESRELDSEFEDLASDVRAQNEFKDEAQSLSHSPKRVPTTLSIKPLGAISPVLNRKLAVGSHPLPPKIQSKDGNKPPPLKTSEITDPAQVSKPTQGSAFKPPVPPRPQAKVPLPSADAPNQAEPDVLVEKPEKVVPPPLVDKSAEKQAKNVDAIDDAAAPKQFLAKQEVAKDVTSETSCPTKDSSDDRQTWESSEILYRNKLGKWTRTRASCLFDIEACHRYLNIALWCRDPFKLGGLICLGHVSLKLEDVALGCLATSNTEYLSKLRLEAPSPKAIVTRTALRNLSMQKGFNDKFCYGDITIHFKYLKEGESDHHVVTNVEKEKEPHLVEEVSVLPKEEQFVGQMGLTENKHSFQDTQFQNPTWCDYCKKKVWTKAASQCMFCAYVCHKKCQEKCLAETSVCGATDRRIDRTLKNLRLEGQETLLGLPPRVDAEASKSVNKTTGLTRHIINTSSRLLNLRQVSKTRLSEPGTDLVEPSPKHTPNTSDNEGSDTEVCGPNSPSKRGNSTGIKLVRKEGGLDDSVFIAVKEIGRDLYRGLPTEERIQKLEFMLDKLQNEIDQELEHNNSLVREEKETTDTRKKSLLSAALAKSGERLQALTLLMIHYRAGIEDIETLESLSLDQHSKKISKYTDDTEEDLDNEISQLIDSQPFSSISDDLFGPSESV
# [2] = biological target: T2, FLAG-tagged PDZD8 (full length), HEK293T (not stated (T527 is the human residue number)) (UniProt Q8NEN9); assay: co-IP
# T2 sequence: T1 sequence
binding [1],binding [2],Substance
binds,–,"glutaminase 1 (GLS1; both KGA and GAC), endogenous in MEFs (from UniProt D3Z7P3 55-674)"
–,binds,"Myc-tagged KGA, HEK293T (from UniProt O94925 55-669) (enzyme)"
–,binds,"Myc-tagged GAC, HEK293T (from UniProt O94925-3 71-598) (enzyme)"
